Source: PubChem BioAssay AID1259424 (University of Nebraska Medical Center, 2018)
Here is an unselected part of about 14,000 reagents. 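Higher correlation or smaller distance means closer resemblance to KSR1 loss; control wells, including KSR1 knockdowns, recur on many plates.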 Not given: the time to read-out.

- Test: 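Find knockdowns that reproduce the expression shifts seen after KSR1 loss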 (primary screen)
- System: human HCT116 colon cancer cells
- Reagent: siRNA pool against human genes, 50 nM
- Measured: 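Six signature mRNAs by branched-DNA multiplex assay, scaled to two housekeeping genes and non-targeting median, log2; matched to mean KSR1 knockdown profile by Pearson correlation and euclidean distance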
- Direction: mean correlation with KSR1 profile and KSR1 correlation: higher = expression change more like KSR1 knockdown; mean distance from KSR1 profile: higher = expression change less like KSR1 knockdown

no.	gene	PubChem SID	mean correlation with KSR1 profile	mean distance from KSR1 profile	KSR1 correlation, replicate 1	KSR1 correlation, replicate 2	KSR1 correlation, replicate 3
1	UBE2G1 (ubiquitin conjugating enzyme E2 G1)	SID363994458	0.524	0.828	0.502	0.515	0.437
2	MUC2 (mucin 2, oligomeric mucus/gel-forming)	SID363993634	0.847	2.06	0.767	0.89	0.621
3	TBX20 (T-box transcription factor 20)	SID364001680	-0.19	2.32	-0.472	-0.125	-0.101
4	RPRD2 (regulation of nuclear pre-mRNA domain containing 2)	SID363999362	0.253	2.64	0.36	0.19	0.115
5	CEP89 (centrosomal protein 89)	SID364004196	0.771	1.89	0.709	0.879	0.245
6	TTC19 (tetratricopeptide repeat domain 19)	SID364000519	0.105	2.53	0.186	0.0571	-0.0934
7	CCN3 (cellular communication network factor 3)	SID363993686	0.539	1.26	0.704	0.275	0.49
8	DNAJC6 (DnaJ heat shock protein family (Hsp40) member C6)	SID363999106	-0.339	3.96	-0.238	-0.643	-0.185
9	GFI1B (growth factor independent 1B transcriptional repressor)	SID363995192	0.741	1.02	0.82	0.59	0.572
10	LECT2 (leukocyte cell derived chemotaxin 2)	SID363993500	0.438	1.44	0.249	0.207	0.445
11	ZNF823 (zinc finger protein 823)	SID364005540	-0.195	0.988	-0.0387	-0.68	0.304
12	NCK1 (NCK adaptor protein 1)	SID363996983	0.00707	0.969	0.079	-0.248	0.401
13	C9orf78 (chromosome 9 open reading frame 78)	SID364000136	0.76	1.32	0.767	0.508	0.867
14	ADGRA1 (adhesion G protein-coupled receptor A1)	SID364003973	0.247	2.11	0.0269	0.291	0.288
15	TACC1 (transforming acidic coiled-coil containing protein 1)	SID363997105	-0.547	2.05	-0.814	-0.514	-0.0899
16	REV1 (REV1 DNA directed polymerase)	SID364000029	0.239	1.82	0.256	0.319	-0.05
17	MRPL36 (mitochondrial ribosomal protein L36)	SID364003998	-0.504	1.86	-0.572	-0.554	-0.411
18	DUSP10 (dual specificity phosphatase 10)	SID363997903	-0.322	1.67	-0.284	-0.803	-0.607
19	HNRNPH3 (heterogeneous nuclear ribonucleoprotein H3)	SID363998140	-0.0113	2.97	-0.128	-0.193	0.215
20	TELO2 (telomere maintenance 2)	SID363999880	-0.152	2.1	0.0697	-0.38	-0.0908
21	ATAD1 (ATPase family AAA domain containing 1)	SID364004190	-0.215	2.73	-0.287	-0.18	-0.317
22	CPEB4 (cytoplasmic polyadenylation element binding protein 4)	SID364003379	0.0548	2.17	-0.278	0.0251	0.197
23	TBP (TATA-box binding protein)	SID363994328	-0.153	2.38	0.107	-0.138	0.346
24	PARL (presenilin associated rhomboid like)	SID364001138	-0.319	2.25	-0.448	-0.462	-0.142
25	DSG1 (desmoglein 1)	SID363993155	0.138	2.93	0.247	-0.262	0.362
26	VN1R5 (vomeronasal 1 receptor 5 (gene/pseudogene))	SID364004851	-0.639	2.93	0.29	0.149	-0.286
27	MSI1 (musashi RNA binding protein 1)	SID363993620	-0.275	3.44	-0.219	-0.402	-0.297
28	MAGEB4 (MAGE family member B4)	SID363993549	-0.713	2.99	-0.75	-0.752	-0.675
29	RFC1 (replication factor C subunit 1)	SID363994068	-0.0714	1.54	-0.282	-0.0935	0.346
30	CPNE5 (copine 5)	SID364001905	0.114	1.5	0.0467	0.27	-0.123
31	GNG11 (G protein subunit gamma 11)	SID363995136	0.829	2.01	0.477	0.773	0.784
32	GALNT1 (polypeptide N-acetylgalactosaminyltransferase 1)	SID364001719	-0.583	1.85	-0.516	-0.574	-0.773
33	H2BC3 (H2B clustered histone 3)	SID364001981	-0.0537	2.93	-0.296	-0.109	0.00791
34	CTNND1 (catenin delta 1)	SID363992611	0.0214	2.02	-0.00719	-0.238	0.156
35	EEPD1	SID364003384	0.207	1.92	-0.0176	0.233	0.133
36	ASS1 (argininosuccinate synthase 1)	SID363991389	0.324	2.43	0.315	0.526	-0.127
37	RIN3 (Ras and Rab interactor 3)	SID364003097	0.275	2.25	0.288	0.349	0.227
38	OTOR (otoraplin)	SID364001516	-0.343	3.04	-0.31	-0.461	-0.263
39	EFCAB6 (EF-hand calcium binding domain 6)	SID364002557	-0.685	1.84	-0.782	-0.483	-0.624
40	ZNF512B (zinc finger protein 512B)	SID364001792	0.42	3.74	0.223	0.482	0.507
41	PAX4 (paired box 4)	SID363997019	0.138	1.52	-0.00427	0.337	0.0968
42	ACTRT3 (actin related protein T3)	SID364004004	0.83	1.33	0.781	0.467	0.527
43	PSMD1 (proteasome 26S subunit, non-ATPase 1)	SID363993964	-0.138	4.31	0.0714	-0.138	-0.477
44	CACNA1E (calcium voltage-gated channel subunit alpha1 E)	SID363992018	-0.201	2.57	-0.29	-0.421	-0.0298
45	FOXA3 (forkhead box A3)	SID363995474	0.426	4.11	0.408	0.306	0.59
46	ILRUN	SID364002532	-0.467	2.02	-0.498	-0.374	-0.445
47	ADI1 (acireductone dioxygenase 1)	SID364000930	-0.0622	2.38	-0.212	0.0631	0.0355
48	LIG1 (DNA ligase 1)	SID363991568	-0.00368	1.36	0.193	0.116	-0.635
49	IFT25 (intraflagellar transport 25)	SID363999894	-0.39	2.23	-0.57	-0.315	-0.332
50	ATP10D (ATPase phospholipid transporting 10D (putative))	SID364001707	0.0935	1.23	0.477	-0.061	0.0606
51	NLGN3 (neuroligin 3)	SID364001301	0.263	1.12	0.212	0.465	0.0322
52	MRPS23 (mitochondrial ribosomal protein S23)	SID363999843	0.198	2.48	0.338	0.444	0.0574
53	EIF3A (eukaryotic translation initiation factor 3 subunit A)	SID363994817	0.0606	2	0.285	-0.133	-0.0796
54	DHH (desert hedgehog signaling molecule)	SID364001971	0.437	2.45	0.121	0.564	0.627
55	GALK2 (galactokinase 2)	SID363993254	0.32	2.63	0.28	0.387	0.0411
56	TLL2 (tolloid like 2)	SID363998338	0.298	2.04	0.408	0.391	0.127
57	MMP24 (matrix metallopeptidase 24)	SID363997472	-0.589	2.8	-0.514	-0.753	-0.512
58	ZDHHC14 (zDHHC palmitoyltransferase 14)	SID364002929	0.566	1.42	0.606	0.769	0.302
59	ATP5MC2 (ATP synthase membrane subunit c locus 2)	SID363996103	0.823	4.17	0.847	0.609	0.791
60	ANGPTL6 (angiopoietin like 6)	SID364003696	0.731	2.78	0.569	0.721	0.813
61	ANP32B (acidic nuclear phosphoprotein 32 family member B)	SID363997212	-0.409	1.38	-0.188	-0.738	-0.499
62	ENOPH1 (enolase-phosphatase 1)	SID364002091	-0.277	3.17	-0.323	-0.273	-0.345
63	TBX6 (T-box transcription factor 6)	SID363995577	-0.0435	1.64	0.0665	0.0787	-0.115

No new results follow: entries from further up.
no.	gene	PubChem SID	mean correlation with KSR1 profile	mean distance from KSR1 profile	KSR1 correlation, replicate 1	KSR1 correlation, replicate 2	KSR1 correlation, replicate 3
47	ADI1 (acireductone dioxygenase 1)	SID364000930	-0.0622	2.38	-0.212	0.0631	0.0355
48	LIG1 (DNA ligase 1)	SID363991568	-0.00368	1.36	0.193	0.116	-0.635
49	IFT25 (intraflagellar transport 25)	SID363999894	-0.39	2.23	-0.57	-0.315	-0.332
50	ATP10D (ATPase phospholipid transporting 10D (putative))	SID364001707	0.0935	1.23	0.477	-0.061	0.0606
51	NLGN3 (neuroligin 3)	SID364001301	0.263	1.12	0.212	0.465	0.0322
52	MRPS23 (mitochondrial ribosomal protein S23)	SID363999843	0.198	2.48	0.338	0.444	0.0574
53	EIF3A (eukaryotic translation initiation factor 3 subunit A)	SID363994817	0.0606	2	0.285	-0.133	-0.0796
54	DHH (desert hedgehog signaling molecule)	SID364001971	0.437	2.45	0.121	0.564	0.627
55	GALK2 (galactokinase 2)	SID363993254	0.32	2.63	0.28	0.387	0.0411
56	TLL2 (tolloid like 2)	SID363998338	0.298	2.04	0.408	0.391	0.127
